Assay results reported in article PMC9981285.
These are yes or no findings as the source states them, for the method shown. In cells and extracts the contact can be indirect. Some entries that bind do so weakly or less than the wild type. Sequences can lack the tags named with a protein.

Sequences of proteins named here, by UniProt entry; tags and fusion partners are left off.
UniProt P40763: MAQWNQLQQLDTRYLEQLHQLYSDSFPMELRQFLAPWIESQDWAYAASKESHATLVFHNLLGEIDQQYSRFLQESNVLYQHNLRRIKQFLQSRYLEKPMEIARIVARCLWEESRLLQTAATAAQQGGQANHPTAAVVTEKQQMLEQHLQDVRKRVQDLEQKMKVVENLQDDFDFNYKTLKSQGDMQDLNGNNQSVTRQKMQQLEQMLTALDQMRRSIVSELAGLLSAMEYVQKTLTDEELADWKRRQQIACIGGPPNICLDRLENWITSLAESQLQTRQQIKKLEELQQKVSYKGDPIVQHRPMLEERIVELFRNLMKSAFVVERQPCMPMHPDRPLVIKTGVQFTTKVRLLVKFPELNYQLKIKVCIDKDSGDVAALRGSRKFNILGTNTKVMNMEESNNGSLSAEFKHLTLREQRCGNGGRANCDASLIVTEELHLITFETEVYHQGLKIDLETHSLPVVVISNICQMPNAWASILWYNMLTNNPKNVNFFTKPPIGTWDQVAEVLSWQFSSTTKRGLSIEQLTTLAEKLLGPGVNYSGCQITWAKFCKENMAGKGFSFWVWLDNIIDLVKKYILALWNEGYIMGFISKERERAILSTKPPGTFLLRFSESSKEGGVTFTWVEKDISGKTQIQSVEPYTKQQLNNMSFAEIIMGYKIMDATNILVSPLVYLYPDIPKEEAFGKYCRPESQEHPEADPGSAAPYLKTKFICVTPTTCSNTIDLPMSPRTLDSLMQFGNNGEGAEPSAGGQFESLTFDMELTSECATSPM

Molecular target: T1, 3 × FLAG-GINS2 (UniProt Q9Y248)
T1 sequence: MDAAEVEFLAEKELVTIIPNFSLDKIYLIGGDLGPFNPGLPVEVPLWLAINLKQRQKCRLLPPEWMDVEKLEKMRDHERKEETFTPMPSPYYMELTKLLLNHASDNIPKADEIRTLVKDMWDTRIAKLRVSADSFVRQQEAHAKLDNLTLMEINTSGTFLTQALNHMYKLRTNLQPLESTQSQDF
Assay: co-IP; Co-IP/immunoblotting in HOS cells; FLAG beads on lysates of cells with 3 × FLAG-GINS2

STAT3 (from UniProt P40763 1-770)
binding: binds
